This note sets out measurements from publication PMC11134608, “UBR5 forms ligand-dependent complexes on chromatin to regulate nuclear hormone receptor stability” (Molecular cell, 2023).

The chains behind the UniProt entries cited, without tags or fusion partners.
UniProt P03372: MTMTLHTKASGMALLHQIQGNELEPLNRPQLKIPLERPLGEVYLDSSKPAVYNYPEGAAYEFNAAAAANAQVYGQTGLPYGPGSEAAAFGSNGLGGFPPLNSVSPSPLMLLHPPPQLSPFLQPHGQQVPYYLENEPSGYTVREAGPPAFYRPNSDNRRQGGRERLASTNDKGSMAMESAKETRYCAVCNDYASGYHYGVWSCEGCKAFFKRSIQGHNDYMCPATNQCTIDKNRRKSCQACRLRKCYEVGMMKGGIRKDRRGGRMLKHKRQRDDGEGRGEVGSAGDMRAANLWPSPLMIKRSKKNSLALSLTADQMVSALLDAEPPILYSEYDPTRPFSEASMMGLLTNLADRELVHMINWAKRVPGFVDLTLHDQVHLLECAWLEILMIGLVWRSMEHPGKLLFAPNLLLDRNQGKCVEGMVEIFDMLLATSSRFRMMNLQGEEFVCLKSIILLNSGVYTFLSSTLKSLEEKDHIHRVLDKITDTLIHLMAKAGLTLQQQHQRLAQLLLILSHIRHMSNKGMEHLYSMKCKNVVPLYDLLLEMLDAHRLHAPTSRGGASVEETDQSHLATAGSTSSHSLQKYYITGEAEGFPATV

Assay [1] deals with ER (NanoBRET fusion, in cells) (UniProt P03372). In words: FRET or BRET; NanoBRET PPI kit (Promega) in cells, ± ligand (9-cis RA; fulvestrant).
A further assay addresses ER-GFP (293T) (UniProt P03372). In words: co-IP; 293T cells co-transfected with FLAG-RNF111 and ER-GFP, ± fulvestrant and MG132; blotted for FLAG and GFP.

Results are given in words; binding and its absence hold for the method and conditions named. In cells and extracts the contact can be indirect. Some entries that bind do so weakly or less than the wild type. Tags and fused reporters may be left off the sequences shown.

B1: RNF111 (NanoBRET fusion, in cells) (enzyme, UniProt Q6ZNA4 1-994)
chain: MSQWTPEYNELYTLKVDMKSEIPSDAPKTQESLKGILLHPEPIGAAKSFPAGVEMINSKVGNEFSHLCDDSQKQEKEMNGNQQEQEKSLVVRKKRKSQQAGPSYVQNCVKENQGILGLRQHLGTPSDEDNDSSFSDCLSSPSSSLHFGDSDTVTSDEDKEVSVRHSQTILNAKSRSHSARSHKWPRTETESVSGLLMKRPCLHGSSLRRLPCRKRFVKNNSSQRTQKQKERILMQRKKREVLARRKYALLPSSSSSSENDLSSESSSSSSTEGEEDLFVSASENHQNNPAVPSGSIDEDVVVIEASSTPQVTANEEINVTSTDSEVEIVTVGESYRSRSTLGHSRSHWSQGSSSHASRPQEPRNRSRISTVIQPLRQNAAEVVDLTVDEDEPTVVPTTSARMESQATSASINNSNPSTSEQASDTASAVTSSQPSTVSETSATLTSNSTTGTSIGDDSRRTTSSAVTETGPPAMPRLPSCCPQHSPCGGSSQNHHALGHPHTSCFQQHGHHFQHHHHHHHTPHPAVPVSPSFSDPACPVERPPQVQAPCGANSSSGTSYHEQQALPVDLSNSGIRSHGSGSFHGASAFDPCCPVSSSRAAIFGHQAAAAAPSQPLSSIDGYGSSMVAQPQPQPPPQPSLSSCRHYMPPPYASLTRPLHHQASACPHSHGNPPPQTQPPPQVDYVIPHPVHAFHSQISSHATSHPVAPPPPTHLASTAAPIPQHLPPTHQPISHHIPATAPPAQRLHPHEVMQRMEVQRRRMMQHPTRAHERPPPHPHRMHPNYGHGHHIHVPQTMSSHPRQAPERSAWELGIEAGVTAATYTPGALHPHLAHYHAPPRLHHLQLGALPLMVPDMAGYPHIRYISSGLDGTSFRGPFRGNFEELIHLEERLGNVNRGASQGTIERCTYPHKYKKVTTDWFSQRKLHCKQDGEEGTEEDTEEKCTICLSILEEGEDVRRLPCMHLFHQVCVDQWLITNKKCPICRVDIEAQLPSES
As for B1, the binding result in assay [1] was “binds”.

B2: FLAG-RNF111 (enzyme, UniProt Q6ZNA4 1-994)
chain: MSQWTPEYNELYTLKVDMKSEIPSDAPKTQESLKGILLHPEPIGAAKSFPAGVEMINSKVGNEFSHLCDDSQKQEKEMNGNQQEQEKSLVVRKKRKSQQAGPSYVQNCVKENQGILGLRQHLGTPSDEDNDSSFSDCLSSPSSSLHFGDSDTVTSDEDKEVSVRHSQTILNAKSRSHSARSHKWPRTETESVSGLLMKRPCLHGSSLRRLPCRKRFVKNNSSQRTQKQKERILMQRKKREVLARRKYALLPSSSSSSENDLSSESSSSSSTEGEEDLFVSASENHQNNPAVPSGSIDEDVVVIEASSTPQVTANEEINVTSTDSEVEIVTVGESYRSRSTLGHSRSHWSQGSSSHASRPQEPRNRSRISTVIQPLRQNAAEVVDLTVDEDEPTVVPTTSARMESQATSASINNSNPSTSEQASDTASAVTSSQPSTVSETSATLTSNSTTGTSIGDDSRRTTSSAVTETGPPAMPRLPSCCPQHSPCGGSSQNHHALGHPHTSCFQQHGHHFQHHHHHHHTPHPAVPVSPSFSDPACPVERPPQVQAPCGANSSSGTSYHEQQALPVDLSNSGIRSHGSGSFHGASAFDPCCPVSSSRAAIFGHQAAAAAPSQPLSSIDGYGSSMVAQPQPQPPPQPSLSSCRHYMPPPYASLTRPLHHQASACPHSHGNPPPQTQPPPQVDYVIPHPVHAFHSQISSHATSHPVAPPPPTHLASTAAPIPQHLPPTHQPISHHIPATAPPAQRLHPHEVMQRMEVQRRRMMQHPTRAHERPPPHPHRMHPNYGHGHHIHVPQTMSSHPRQAPERSAWELGIEAGVTAATYTPGALHPHLAHYHAPPRLHHLQLGALPLMVPDMAGYPHIRYISSGLDGTSFRGPFRGNFEELIHLEERLGNVNRGASQGTIERCTYPHKYKKVTTDWFSQRKLHCKQDGEEGTEEDTEEKCTICLSILEEGEDVRRLPCMHLFHQVCVDQWLITNKKCPICRVDIEAQLPSES
Turning to B2, the binding entry with ER-GFP (293T) is given as “binds”.
